In patent US20250177406A1, “PHARMACEUTICAL COMPOSITION FOR TREATING TUMORS” (Eisai R&D Management Co., Ltd., priority 2022, published 2025):

Tested on: KRAS G12C mutation-positive human pancreatic cancer cell line MIA PaCa-2
Assay: cells
Details: MIA PaCa-2, 120 h

- GI50: 3.9 µM
Compound: COc1cc2nc(C)nc(N[C@H](C)c3cc(N)cc(C(F)(F)F)c3)c2cc1O[C@H]1CCOC1 [BI3406]
